Results are given in words; binding and its absence hold for the method and conditions named. Binding seen in cells or lysates may run through a third protein. Binding can be weak; no strength is given.

The chains behind the UniProt entries cited, without tags or fusion partners. Where a name states a change or a piece, a line headed by the entry shows the natural chain unless it says otherwise.
UniProt P08172: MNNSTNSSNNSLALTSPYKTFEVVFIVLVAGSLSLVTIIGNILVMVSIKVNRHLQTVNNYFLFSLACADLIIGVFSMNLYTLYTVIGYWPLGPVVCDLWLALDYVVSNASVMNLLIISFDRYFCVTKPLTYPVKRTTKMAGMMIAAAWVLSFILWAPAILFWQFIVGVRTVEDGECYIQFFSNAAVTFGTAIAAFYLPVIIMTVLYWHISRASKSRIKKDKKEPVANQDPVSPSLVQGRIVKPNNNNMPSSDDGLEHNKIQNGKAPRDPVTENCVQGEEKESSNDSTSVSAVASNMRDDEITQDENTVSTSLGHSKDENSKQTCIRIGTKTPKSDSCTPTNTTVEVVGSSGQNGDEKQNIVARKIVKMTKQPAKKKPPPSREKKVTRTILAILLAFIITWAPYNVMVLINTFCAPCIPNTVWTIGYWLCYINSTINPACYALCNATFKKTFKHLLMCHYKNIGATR
UniProt P21728: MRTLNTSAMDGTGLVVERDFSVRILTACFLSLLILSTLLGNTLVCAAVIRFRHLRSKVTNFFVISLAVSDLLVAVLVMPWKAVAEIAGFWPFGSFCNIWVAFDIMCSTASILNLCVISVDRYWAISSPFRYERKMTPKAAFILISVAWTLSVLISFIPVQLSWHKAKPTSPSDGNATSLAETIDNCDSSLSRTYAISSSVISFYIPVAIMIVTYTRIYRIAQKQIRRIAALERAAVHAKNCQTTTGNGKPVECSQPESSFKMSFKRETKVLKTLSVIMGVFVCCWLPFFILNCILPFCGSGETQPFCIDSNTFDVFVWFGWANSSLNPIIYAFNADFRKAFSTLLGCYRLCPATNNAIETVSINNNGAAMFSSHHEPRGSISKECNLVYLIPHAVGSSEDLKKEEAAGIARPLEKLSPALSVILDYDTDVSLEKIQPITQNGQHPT
UniProt P32120: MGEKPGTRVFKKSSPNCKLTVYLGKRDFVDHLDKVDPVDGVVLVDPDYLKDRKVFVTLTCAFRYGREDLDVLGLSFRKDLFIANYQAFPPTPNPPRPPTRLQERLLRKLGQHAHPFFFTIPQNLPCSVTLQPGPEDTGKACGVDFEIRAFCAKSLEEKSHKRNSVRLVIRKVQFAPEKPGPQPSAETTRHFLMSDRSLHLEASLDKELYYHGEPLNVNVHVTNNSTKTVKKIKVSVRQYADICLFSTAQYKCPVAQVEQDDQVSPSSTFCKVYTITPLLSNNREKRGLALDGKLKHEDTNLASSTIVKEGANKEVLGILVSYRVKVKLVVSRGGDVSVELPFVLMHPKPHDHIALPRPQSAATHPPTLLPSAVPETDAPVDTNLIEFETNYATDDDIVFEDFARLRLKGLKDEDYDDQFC

Experiment [1] concerns the target M2 muscarinic acetylcholine receptor, C-terminally tagged with Renilla luciferase variant 8 (human) (UniProt P08172). The experiment can be described thus: FRET or BRET; in-cell BRET in HEK293 arrestin-2/3 KO cells co-transfected with Venus-arrestin-3 (acceptor) and receptor-RLuc8 (donor); 10 uM agonist (carbachol for M2R, isoproterenol for β2AR, dopamine for D1R, quinpirole for D2R), 5 uM coelenterazine h; net BRET (with minus without agonist), average at 10 and 15 min and time course. (Bioluminescence resonance energy transfer reports proximity on the nanometre scale.)

Experiment [2] addresses dopamine D1 receptor, C-terminally tagged with Renilla luciferase variant 8 (human) (UniProt P21728). The description is as above.

“Venus-tagged arrestin-3 G65P (on the A87V background) (from UniProt P32120)”: the binding result in experiment [1] and in experiment [2] was “binds” in each case.
As to “Venus-tagged arrestin-3 E157A (on the A87V background) (from UniProt P32120)”, the binding entry in experiment [1] and in experiment [2] was “binds” in each case.
For the substance “Venus-tagged arrestin-3 K313A (on the A87V background) (from UniProt P32120)”, the binding entry in experiment [1] and in experiment [2] was “binds” throughout.
Turning to “Venus-tagged arrestin-3 A87V base mutant (from UniProt P32120)”, the binding result in experiment [1] and in experiment [2] was “binds” throughout.
With “Venus-tagged arrestin-3 ΔG65 (on the A87V background) (from UniProt P32120)”, the binding result in experiment [1] and in experiment [2] was “binds” throughout.
As to “Venus-tagged arrestin-3 F245A (on the A87V background) (from UniProt P32120)”, the binding entry in experiment [1] and in experiment [2] was “binds” in each case.

The values above are taken from PMC6420155.
